From patent publication US4876243A (Smithkline Beckman Corporation, priority 1987, dated 1989) come the findings set out here.

The series in a line: general procedure: Boc solid-phase peptide synthesis; BHA resin; DCC/HOBT; DCC/DMAP for Pmp(4-MeBzl). The settings on record: whole synthesis, scale 1 mmole.

HELM strings list residues between dots; [ac] is acetyl, [am] amide, other brackets name non-standard units.

Take “PEPTIDE1{[Pmp].[D-Tyr(Et)].F.V.N.C.[Aib].R.G.[am]}$PEPTIDE1,PEPTIDE1,1:R3-6:R3$$$V2.0”: the isolated mass amounted to 423 mg.
The substance “PEPTIDE1{[Pmp].[D-Tyr(Et)].F.[Aib].N.C.P.R.[am]}$PEPTIDE1,PEPTIDE1,1:R3-6:R3$$$V2.0” gave a crude mass of 303 mg.
